According to PubChem BioAssay AID1487 (National Center for Advancing Translational Sciences (NCATS), 2009):
The other results are listed elsewhere or left out. Further columns of the screen follow, without active or inactive calls. Most of these compounds were active or inconclusive in the main read-out, so they are no random draw. The note in brackets gives the kind of curve behind each potency; many fits are weak.

Assay: qHTS Assay for Modulators of Lamin A Splicing
Settings: HeLa LMNA splicing GFP/RFP minigene ratio, 48 h
Method in brief: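 S3 HeLa stable clones carrying a lamin A-EGFP splicing minigene plus DsRed2 were seeded at 600 cells/well in Opti-MEM with 2% FBS, pin-dosed and incubated 48 h at 37°C. Acumen cytometry (488 nm) gave the GFP/RFP total-intensity ratio.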

[1] = measured here: GFP splicing reporter channel
[2] = measured here: RFP viability control channel

| SMILES | AC50 [1] | AC50 [2] |
| --- | --- | --- |
| CCNc1ncc2nc(-c3cccs3)c(=O)n(CCc3ccccc3)c2n1 | 12.6 µM [falling, partial curve] | 12.6 µM [falling, partial curve] |
| COc1cc(/C=C2\CC/C(=C\c3cc(OC)c(O)c(OC)c3)C2=O)cc(OC)c1O | 22.4 µM [falling, partial curve, poor fit] | 11.2 µM [falling, partial curve] |
| CCOc1ccccc1Nc1sc(C(=O)c2ccccc2)c(N)c1C(=O)Nc1ccccc1 | 11.2 µM [falling, partial curve, poor fit] | 11.2 µM [falling, partial curve, poor fit] |
| Cc1occc1-c1nnc(SCCCC(=O)c2ccc(F)cc2)n1C |  | 15.8 µM [rising, single point] |
| Cn1cc(/C=N/n2cnc3scc(-c4ccc(Cl)cc4)c3c2=O)c2ccccc21 | 4.47 µM [rising, partial curve] | 1.58 µM [rising, full curve] |
| CC(CN1CCCCC1)OC(=O)c1cc2ccccc2o1 (stereo unspecified) | 2 µM [falling, full curve, poor fit] | 1.26 µM [falling, full curve, poor fit] |
| COc1cccc(-c2ccc3ncnc(NCc4ccccc4)c3c2)c1 | 17.8 µM [falling, partial curve] | 15.8 µM [falling, partial curve] |
| CN1/C(=C/C(=S)NC(=O)C2(C)CC2(Cl)Cl)C(C)(C)c2ccccc21 (stereo unspecified) |  | 8.91 µM [rising, partial curve, poor fit] |
| COc1ccc(-c2nn3c(=O)cc(CN4CCN(C(=O)c5ccc(OC)c(OC)c5)CC4)nc3s2)cc1 | 0.0708 µM [rising, full curve, poor fit] | 2.82 µM [rising, partial curve, poor fit] |
| Cc1cccc(Nc2nnc(SCC(=O)c3ccc(Br)s3)s2)c1C | 35.5 µM [rising, single point] |  |
| CC(=O)Nc1c(I)c(C(=O)N[C@H]2[C@@H](O)[C@H](O)[C@H](CO)O[C@@H]2O)c(I)c(N(C)C(C)=O)c1I | 0.002 µM [falling, full curve, poor fit] | 0.00398 µM [falling, full curve, poor fit] |
| CCn1c(SCC(N)=O)nnc1-c1cc2c(C)nn(-c3ccccc3)c2s1 |  | 11.2 µM [rising, partial curve, poor fit] |
| Cc1cccc(-n2c(-c3cccc([N+](=O)[O-])c3)nc3nc4ccccc4nc32)c1 |  | 12.6 µM [rising, single point] |
| CC(C)(C)c1ccc(C(=O)Nc2ccc3c(c2)CCCN3C(=O)c2cccs2)cc1 | 0.0562 µM [falling, full curve, poor fit] |  |
| Cc1cc(-c2ccc3ccccc3c2)n2ncnc2n1 | 15.8 µM [rising, partial curve] | 17.8 µM [rising, partial curve] |
| COc1ccc(S(=O)(=O)N2CCCCC2)cc1NS(=O)(=O)c1cc(Cl)ccc1Cl | 0.631 µM [rising, full curve, poor fit] | 0.708 µM [rising, full curve] |
| COc1ccc(OC(C)C(=O)Nc2cccc([N+](=O)[O-])c2)cc1 (stereo unspecified) |  | 14.1 µM [rising, single point] |
| Cc1ccc(Nc2nc(N)nc(CN3CCN(Cc4ccc5c(c4)OCO5)CC3)n2)cc1Cl | 31.6 µM [rising, single point] | 20 µM [rising, single point] |
| CCOc1cc(C(=O)Nc2ccccc2F)cc(Br)c1OCC | 17.8 µM [rising, partial curve, poor fit] | 17.8 µM [rising, partial curve] |
| COc1ccc(CNC(=S)NCc2ccc(OC(C)C)cc2)cc1 | 20 µM [rising, single point] | 17.8 µM [rising, single point] |
| COC(=O)C/C=C/[C@@H](C)[C@@H](/C=N/OC[C@H]1O[C@H](c2ccccc2)C=C[C@@H]1Oc1ccc(OC)cc1)NS(=O)(=O)c1ccc(C)cc1 | 11.2 µM [rising, single point] | 11.2 µM [rising, partial curve] |
| CCc1nnc(NC(=O)c2ccc(COc3ccccc3)o2)s1 | 35.5 µM [rising, single point] | 35.5 µM [rising, single point] |
| CCNC(=S)Nc1ccc(Cl)cc1Cl | 14.1 µM [rising, single point] | 35.5 µM [rising, single point] |
| CC(=O)Nc1ccc(NC(=O)C(C)OC(=O)c2ccccc2C(=O)c2ccc(Cl)c([N+](=O)[O-])c2)cc1 (stereo unspecified) |  | 35.5 µM [rising, partial curve, poor fit] |
| O=c1oc2ccccc2cc1-c1cn(-c2ccccc2)c(=S)[nH]1 |  | 5.62 µM [rising, partial curve] |
| COc1ccc(OC)c(NC(=S)NCCSc2ccc(C)cc2)c1 | 35.5 µM [rising, single point] |  |

| SMILES | AC50 [1] | AC50 [2] |
| --- | --- | --- |
| O=C(CSc1nnc(-c2cc3ccccc3cc2O)n1Cc1ccco1)N1CCc2ccccc2C1 |  | 11.2 µM [rising, single point] |
| COc1ccc(N=C(C)C2=C(O)c3ccccc3C2=O)cc1 |  | 12.6 µM [rising, single point] |
| O=C(N/N=C\c1ccc([N+](=O)[O-])o1)c1ccc(O)cc1 | 7.94 µM [falling, partial curve] |  |
| COc1ccc(-c2nnc(SCC(=O)N(Cc3ccccc3)C(C)(C)C)o2)cc1OC | 6.31 µM [rising, partial curve] | 10 µM [rising, partial curve] |
| NC1=NC(=O)/C(=C/c2cn(Cc3ccccc3)c3ccccc23)S1 |  | 25.1 µM [rising, single point] |
| CN(C)CC/C=C1/c2ccccc2Sc2c(O)cc(Cl)cc21 |  | 12.6 µM [rising, partial curve, poor fit] |
| CCN(CC1COc2ccccc2O1)S(=O)(=O)c1ccc(C)cc1 (stereo unspecified) |  | 20 µM [rising, single point] |
| O=C(O)CCCCn1c(SCC(=O)Nc2ccccc2C(F)(F)F)nc2ccsc2c1=O | 0.0316 µM [rising, full curve, poor fit] |  |
| Cc1nn(C)c(C(=O)NNC(=S)NC2CCCCC2)c1Cl | 8.91 µM [rising, partial curve] | 15.8 µM [rising, single point] |
| Cc1ccc(OCCCn2cc(C#N)c3ccccc32)cc1 |  | 22.4 µM [rising, single point] |
| CCC1CN(C(=O)N2CCC(C(=O)NCCc3ccccc3Cl)CC2)c2cc(C)ccc2O1 (stereo unspecified) | 35.5 µM [falling, single point] | 22.4 µM [falling, single point] |
| Cc1ccc(NC(=O)CN2C(=O)/C(=C\c3cccs3)SC2=S)cc1 |  | 0.562 µM [rising, full curve, poor fit] |
| Cc1cc2c(cc1C)C(c1cccc([N+](=O)[O-])c1)CC(=O)N2 (stereo unspecified) | 15.8 µM [rising, partial curve, poor fit] | 14.1 µM [rising, single point] |
| O=C(Nc1ccn(Cc2ccc(F)cc2)n1)c1ccncc1 |  | 11.2 µM [rising, partial curve] |
| OC(CN=c1sc2ccccc2n1CC(O)COc1ccccc1)COc1ccccc1 (stereo unspecified) | 35.5 µM [falling, single point] | 35.5 µM [falling, single point] |
| COc1ccc2oc(-c3ccc(NC(=O)c4ccc(N5CCOCC5)c([N+](=O)[O-])c4)cc3)nc2c1 |  | 35.5 µM [rising, single point] |
| O=C1C=C(NCCN2CCOCC2)C(=O)c2cnccc21 | 3.16 µM [falling, partial curve] | 3.98 µM [falling, partial curve] |
| CCOC(=O)C1CCCN(C(=O)Cn2cnc3c2c(=O)n(C)c(=O)n3C)C1 (stereo unspecified) |  | 0.01 µM [rising, full curve, poor fit] |
| O=C(CSc1ncnc2c1sc1ccccc12)Nc1ccc(Br)cc1 | 0.158 µM [falling, full curve, poor fit] |  |
| Cc1cccc(Nc2nnc(SCC(=O)NC3CCCc4ccccc43)s2)c1C (stereo unspecified) |  | 7.94 µM [rising, partial curve] |
| C/C(=N\NC(=O)c1cc(-c2cccc([N+](=O)[O-])c2)n[nH]1)c1ccccc1O | 31.6 µM [rising, single point] | 35.5 µM [rising, single point] |
| COc1ccc(-c2cc(C(=O)OC(C)C(=O)Nc3c(C)n(C)n(-c4ccccc4)c3=O)c3ccccc3n2)cc1 (stereo unspecified) |  | 10 µM [rising, partial curve, poor fit] |
| CC1Cc2ccccc2N1C(=O)c1ccc(N2CCCC2)c([N+](=O)[O-])c1 (stereo unspecified) |  | 31.6 µM [rising, single point] |
| COC(=O)c1cc(=O)n(-c2ccccc2)c(=Nc2ccccc2)s1 | 2.82 µM [rising, full curve, poor fit] | 14.1 µM [rising, partial curve] |
| O=C1NC2(CCCCC2)NN1c1ccccc1 | 12.6 µM [rising, partial curve] | 12.6 µM [rising, partial curve, poor fit] |

Single entries from above.
`CCNC(=S)Nc1ccc(Cl)cc1Cl` | AC50 [2]: 35.5 µM [rising, single point]
`COc1ccc(-c2nnc(SCC(=O)N(Cc3ccccc3)C(C)(C)C)o2)cc1OC` | AC50 [1]: 6.31 µM [rising, partial curve]
